PubChem BioAssay
“And” between values parts separate entries of the source, which are not always exact repeats. Equal values may be shown once. The list shows a part of the results. Where no call is shown, the source marks the result inconclusive. For part of these data: Results with a measured potency or affinity are listed apart.

experiment: enhancers of polyQ-expanded androgen receptor AR112-GFP degradation, cell-based, GFP fluorescence (AID 1607); details: cells expressing AR112-GFP, stronger effect = lower value

Row | Structure (SMILES) | normalized GFP signal
1 | Nc1ccc(C(=O)NCC(=O)O)cc1 | 0.964
2 | CC/C(=C(/CC)c1ccc(O)cc1)c1ccc(O)cc1 | 0.886
3 | CC[N+](C)(C)c1cccc(O)c1 | 0.974
4 | CN1CCN(C(c2ccccc2)c2ccc(Cl)cc2)CC1 (stereo not drawn) | 0.877
5 | CC(=O)CC(c1ccccc1)c1c(O)c2ccccc2oc1=O (stereo not drawn) | 1.14
6 | C1CCC(C(CC2CCCCN2)C2CCCCC2)CC1 (stereo not drawn) | 0.571
7 | CCC(=O)O[C@@H](O[P@](=O)(CCCCc1ccccc1)CC(=O)N1C[C@H](C2CCCCC2)C[C@H]1C(=O)O)C(C)C | 0.992
8 | CC(C)NCC(O)c1ccc2ccccc2c1 (stereo not drawn) | 0.914
9 | Fc1ccc(C(c2ccccc2)(c2ccccc2F)n2ccnc2)cc1 (stereo not drawn) | 1.08 and 0.98
10 | CC1=NN(c2ccccc2)C(=O)C1 | 0.935
11 | O=C(O)CN(CC(=O)O)Cc1cc2c(-c3ccccc3C(=O)O)c3cc(CN(CC(=O)O)CC(=O)O)c(=O)cc-3oc2cc1O | 0
12 | CC(C)(Oc1ccc(CCNC(=O)c2ccc(Cl)cc2)cc1)C(=O)O | 1.07
13 | Cc1cc(CC(=O)O)n(C)c1C(=O)c1ccc(Cl)cc1 | 1.03
14 | O=C1NS(=O)(=O)c2ccccc21 | 0.996
15 | CC(C(=O)O)c1ccc(-c2ccccc2)c(F)c1 (stereo not drawn) | 1.41
16 | Cc1ccc(S(=O)(=O)NC(=O)NN2CCCCCC2)cc1 | 0.95
17 | C[C@@H]1O[C@@H](OC[C@H]2O[C@@H](Oc3c(-c4ccc(O)c(O)c4)oc4cc(O)cc(O)c4c3=O)[C@H](O)[C@@H](O)[C@@H]2O)[C@H](O)[C@H](O)[C@H]1O | 0.995
18 | Cc1cc(O)cc(C)c1Cl | 1.01
19 | NC(=NCCCCCCN=C(N)/N=C(\N)Nc1ccc(Cl)cc1)/N=C(\N)Nc1ccc(Cl)cc1 | 0.581
20 | CCCCOc1ccc(C(=O)CCN2CCCCC2)cc1 | 1.07

Row | Structure (SMILES) | normalized GFP signal
21 | NC(=O)c1cc[n+](CC2=C(C(=O)O)N3C(=O)C(NC(=O)C(c4ccccc4)S(=O)(=O)[O-])C3SC2)cc1 (stereo not drawn) | 1.12
22 | CCN(CC)CCOC(=O)C1(C2CCCCC2)CCCCC1 | 0.911
23 | CN/C(=C\[N+](=O)[O-])NCCSCc1ccc(CN(C)C)o1 | 0.958
24 | CC(=O)N(O)CCCCCNC(=O)CCC(=O)N(O)CCCCCNC(=O)CCC(=O)N(O)CCCCCN | 1.03
25 | CC(=O)[C@H]1CCC2C3C[C@H](C)C4=CC(=O)CC[C@]4(C)C3[C@@H](O)C[C@@]21C (stereo partly drawn) | 1.23
26 | CC[C@H]1OC(=O)[C@H](C)[C@@H](O[C@H]2C[C@@](C)(OC)[C@@H](O)[C@H](C)O2)[C@H](C)[C@@H](O[C@@H]2O[C@H](C)C[C@H](N(C)C)[C@H]2O)[C@](C)(O)C[C@@H](C)/C(=N\OCOCCOC)[C@H](C)[C@@H](O)[C@]1(C)O | 1.01
27 | CN(C)CCCN1c2ccccc2CCc2ccccc21 | 0.841
28 | Cc1c(NC(=O)c2cccnc2)c(=O)n(-c2ccccc2)n1C | 0.969
29 | CCCOc1ccccc1-c1nc2n[nH]nc2c(=O)[nH]1 | 1.01
30 | O=C(O)c1cc(=O)c2c(OCC(O)COc3cccc4oc(C(=O)O)cc(=O)c34)cccc2o1 | 0.989
31 | Nc1ncnc2c1ncn2[C@@H]1O[C@H](CO)[C@@H](O)[C@@H]1O | 0.941
32 | Clc1ccccc1C(c1ccccc1)(c1ccccc1)n1ccnc1 | 0.975
33 | CCn1cc(C(=O)O)c(=O)c2cnc(N3CCNCC3)nc21 | 0.968
34 | COc1cc(OC)c2ccc(=O)oc2c1 | 1.02
35 | COc1cc(NS(=O)(=O)c2ccc(N)cc2)nc(OC)n1 | 1.02
36 | CN(C)CCCN1c2ccccc2Sc2ccccc21 | 0.813
37 | NC(=O)N1c2ccccc2C=Cc2ccccc21 | 0.978
38 | CC(=O)NC1SCCC1=O (stereo not drawn) | 1.06
39 | CO[C@H]1C[C@H](O[C@H]2[C@H](C)[C@@H](OC3O[C@H](C)C[C@H](N(C)C)[C@H]3O)[C@@H](C)C[C@]3(CO3)C(=O)[C@H](C)[C@@H](O)[C@@H](C)[C@@H](C)OC(=O)[C@@H]2C)O[C@@H](C)[C@@H]1O (stereo partly drawn) | 0.908

Quoted from the listing:
CC(=O)N(O)CCCCCNC(=O)CCC(=O)N(O)CCCCCNC(=O)CCC(=O)N(O)CCCCCN | normalized GFP signal: 1.03
Cc1c(NC(=O)c2cccnc2)c(=O)n(-c2ccccc2)n1C | normalized GFP signal: 0.969

experiment: PubChem AID 1608; details: PC12 mutant huntingtin toxicity, LDH release

Row | Structure (SMILES) | protection score
40 | Nc1ccc(C(=O)NCC(=O)O)cc1 | 0.799
41 | CC/C(=C(/CC)c1ccc(O)cc1)c1ccc(O)cc1 | 0.645
42 | CC[N+](C)(C)c1cccc(O)c1 | 1
43 | CN1CCN(C(c2ccccc2)c2ccc(Cl)cc2)CC1 (stereo not drawn) | 0.967
44 | CC(=O)CC(c1ccccc1)c1c(O)c2ccccc2oc1=O (stereo not drawn) | 0.987
45 | C1CCC(C(CC2CCCCN2)C2CCCCC2)CC1 (stereo not drawn) | 1.18
46 | CCC(=O)O[C@@H](O[P@](=O)(CCCCc1ccccc1)CC(=O)N1C[C@H](C2CCCCC2)C[C@H]1C(=O)O)C(C)C | 1.34
47 | CC(C)NCC(O)c1ccc2ccccc2c1 (stereo not drawn) | 1.11
48 | Fc1ccc(C(c2ccccc2)(c2ccccc2F)n2ccnc2)cc1 (stereo not drawn) | 1.11 and 0.989
49 | CC1=NN(c2ccccc2)C(=O)C1 | 1.04
50 | O=C(O)CN(CC(=O)O)Cc1cc2c(-c3ccccc3C(=O)O)c3cc(CN(CC(=O)O)CC(=O)O)c(=O)cc-3oc2cc1O | 0.931
51 | CC(C)(Oc1ccc(CCNC(=O)c2ccc(Cl)cc2)cc1)C(=O)O | 0.882
52 | Cc1cc(CC(=O)O)n(C)c1C(=O)c1ccc(Cl)cc1 | 1.29
53 | O=C1NS(=O)(=O)c2ccccc21 | 0.862
54 | CC(C(=O)O)c1ccc(-c2ccccc2)c(F)c1 (stereo not drawn) | 1.02
55 | Cc1ccc(S(=O)(=O)NC(=O)NN2CCCCCC2)cc1 | 1.46
56 | C[C@@H]1O[C@@H](OC[C@H]2O[C@@H](Oc3c(-c4ccc(O)c(O)c4)oc4cc(O)cc(O)c4c3=O)[C@H](O)[C@@H](O)[C@@H]2O)[C@H](O)[C@H](O)[C@H]1O | 0.864
57 | Cc1cc(O)cc(C)c1Cl | 1
58 | NC(=NCCCCCCN=C(N)/N=C(\N)Nc1ccc(Cl)cc1)/N=C(\N)Nc1ccc(Cl)cc1 | 0.858
59 | CCCCOc1ccc(C(=O)CCN2CCCCC2)cc1 | 1.3

Random excerpt: 2 entries already listed, in no set order.
Row | Structure (SMILES) | protection score
50 | O=C(O)CN(CC(=O)O)Cc1cc2c(-c3ccccc3C(=O)O)c3cc(CN(CC(=O)O)CC(=O)O)c(=O)cc-3oc2cc1O | 0.931
52 | Cc1cc(CC(=O)O)n(C)c1C(=O)c1ccc(Cl)cc1 | 1.29

Additional records:

Row | Structure (SMILES) | protection score
60 | NC(=O)c1cc[n+](CC2=C(C(=O)O)N3C(=O)C(NC(=O)C(c4ccccc4)S(=O)(=O)[O-])C3SC2)cc1 (stereo not drawn) | 1.07
61 | CCN(CC)CCOC(=O)C1(C2CCCCC2)CCCCC1 | 0.974
62 | CN/C(=C\[N+](=O)[O-])NCCSCc1ccc(CN(C)C)o1 | 0.954
63 | CC(=O)N(O)CCCCCNC(=O)CCC(=O)N(O)CCCCCNC(=O)CCC(=O)N(O)CCCCCN | 0.978
64 | CC(=O)[C@H]1CCC2C3C[C@H](C)C4=CC(=O)CC[C@]4(C)C3[C@@H](O)C[C@@]21C (stereo partly drawn) | 0.6
65 | CC[C@H]1OC(=O)[C@H](C)[C@@H](O[C@H]2C[C@@](C)(OC)[C@@H](O)[C@H](C)O2)[C@H](C)[C@@H](O[C@@H]2O[C@H](C)C[C@H](N(C)C)[C@H]2O)[C@](C)(O)C[C@@H](C)/C(=N\OCOCCOC)[C@H](C)[C@@H](O)[C@]1(C)O | 0.947
66 | CN(C)CCCN1c2ccccc2CCc2ccccc21 | 0.839
67 | Cc1c(NC(=O)c2cccnc2)c(=O)n(-c2ccccc2)n1C | 0.959
68 | CCCOc1ccccc1-c1nc2n[nH]nc2c(=O)[nH]1 | 1.04
69 | O=C(O)c1cc(=O)c2c(OCC(O)COc3cccc4oc(C(=O)O)cc(=O)c34)cccc2o1 | 1.05
70 | Nc1ncnc2c1ncn2[C@@H]1O[C@H](CO)[C@@H](O)[C@@H]1O | 1.12
71 | Clc1ccccc1C(c1ccccc1)(c1ccccc1)n1ccnc1 | 1.06
72 | CCn1cc(C(=O)O)c(=O)c2cnc(N3CCNCC3)nc21 | 1.1
73 | COc1cc(OC)c2ccc(=O)oc2c1 | 1.18
74 | COc1cc(NS(=O)(=O)c2ccc(N)cc2)nc(OC)n1 | 0.903
75 | CN(C)CCCN1c2ccccc2Sc2ccccc21 | 0.892
76 | NC(=O)N1c2ccccc2C=Cc2ccccc21 | 0.938
77 | CC(=O)NC1SCCC1=O (stereo not drawn) | 0.838
78 | CO[C@H]1C[C@H](O[C@H]2[C@H](C)[C@@H](OC3O[C@H](C)C[C@H](N(C)C)[C@H]3O)[C@@H](C)C[C@]3(CO3)C(=O)[C@H](C)[C@@H](O)[C@@H](C)[C@@H](C)OC(=O)[C@@H]2C)O[C@@H](C)[C@@H]1O (stereo partly drawn) | 0.861
